PubChem BioAssay AID652259 | Drosophila RNAi Screening Center – 2013
The screen tested about 22,000 reagents; below is a random part of those with a known target gene and a result. Of all reagents, 233 (1.1%) are marked active. 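Light values are raw, unnormalised plate reads; the ratio scores behind the reporter calls were not deposited.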 A number with no mark means an inactive call. Names joined by + are all predicted targets of the reagent. No sequences are given here. The record does not give: the amount of reagent, the time to read-out, the dose of the treatment.

Test: 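Genome-wide hunt for genes that control Wingless pathway activity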 (primary screen)
Cells: Drosophila clone 8 imaginal disc epithelial cells
Knock-down reagent: long dsRNA against Drosophila genes
Treatment: pathway stimulated by co-transfected Wingless expression plasmid
Read-out: 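Firefly luciferase from a tcf-site Wingless reporter, measured alongside co-transfected Renilla luciferase that tracks transfection; pathway stimulated by a Wingless plasmid; the firefly-to-Renilla ratio is not deposited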
Scale: firefly reporter light: higher = more Wg reporter light, before normalisation; Renilla control light: higher = more transfected or surviving cells
Hit rule: 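Strong candidates differ from their plate mean by at least two out of four per-plate statistical tests; weak candidates meet just one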
Meaning of the calls: active = candidate regulator (raises or lowers reporter); inactive = not a candidate

Target gene	amplicon	firefly reporter light, replicate 1	firefly reporter light, replicate 2	Renilla control light, replicate 1	Renilla control light, replicate 2
CG14841 (GeneID 41735)	DRSC14965	15053		3770	
CG14613 (GeneID 33133)	DRSC20625	4176	7436	1513	2391
CG18528 (GeneID 42906)	DRSC15340	18768		18644	
Rrp6 (GeneID 41798)	DRSC16223	6412		2555	
lt (GeneID 3355130)	DRSC03759	2528	5990	816	2424
RabGGTa (GeneID 40617)	DRSC12189	7843		1877	
Syt12 (GeneID 32290)	DRSC19359	10469		8899	
CG34135 + CG11768	DRSC12702	2852		1129	
Cirl (GeneID 35846)	DRSC07227	15242		1577	
Cirl (GeneID 35846)	DRSC21942	8.51e5	9.76e5	1.03e5	1.14e5
CG9875 (GeneID 37698)	DRSC04585	3152	8887	768	3049
Ilp4 (GeneID 39152)	DRSC10701	7115		2881	
pre-mod(mdg4)-W + pre-mod(mdg4)-Y + mod(mdg4) + 3 more	DRSC16328	38200		8793	
CG7091 (GeneID 41590)	DRSC12944	2899		1205	
CG7091 (GeneID 41590)	DRSC16197	10656		2800	
CG33155 + mRpL53	DRSC05461	18445		12000	
Mec2 (GeneID 32905)	DRSC20054	1484	5061	720	2458

An excerpt of the results above:
Target gene	amplicon	firefly reporter light, replicate 1	firefly reporter light, replicate 2	Renilla control light, replicate 1	Renilla control light, replicate 2
CG7091 (GeneID 41590)	DRSC12944	2899		1205	
CG7091 (GeneID 41590)	DRSC16197	10656		2800	

The results go on:
Target gene	amplicon	firefly reporter light, replicate 1	firefly reporter light, replicate 2	Renilla control light, replicate 1	Renilla control light, replicate 2
msopa (GeneID 45962)	DRSC11895	7541		1330	
CG43188 (GeneID 12798403)	DRSC05260	29332		15569	
Mocs1 (GeneID 39238)	DRSC11225	6381		2440	
CG8668 (GeneID 34107)	DRSC03101	9112		4531	
CG42525 (GeneID 8674097)	DRSC08026	3218		1562	
CG33160 (GeneID 326265)	DRSC08197	4373		1850	
spel1 (GeneID 34842)	DRSC03617	2880	8123	1291	3952
CG14102 (GeneID 40156)	DRSC10103	6861		2497	
CG42784 (GeneID 326165)	DRSC02534	23304		6264	
CG42784 (GeneID 326165)	DRSC02535	2122	6964	569	1093
CG42784 (GeneID 326165)	DRSC22272	4.48e5	4.55e5	1.70e5	1.62e5
CG42784 (GeneID 326165)	DRSC22804	2.82e5	3.71e5	1.17e5	1.46e5
